# Inconclusive means that the source gave no clear call. Such entries were picked first, then a sample of the others. For some assays here: Where the call is inconclusive, the potency comes from a doubtful curve fit. The source made the active and inactive calls. Rule for the calls: active = hit-call score of the fitted dose curve at least 0.9, where 1 is the maximum; inconclusive = response in the unintended direction; inactive = score below 0.9.
# Protein sequences, listed by entry. Tags and fused reporters are not part of them. Lines headed by an entry give the natural chain unless they say otherwise; changes in a name come on top.
# UniProt P16177, whole entry, looked up: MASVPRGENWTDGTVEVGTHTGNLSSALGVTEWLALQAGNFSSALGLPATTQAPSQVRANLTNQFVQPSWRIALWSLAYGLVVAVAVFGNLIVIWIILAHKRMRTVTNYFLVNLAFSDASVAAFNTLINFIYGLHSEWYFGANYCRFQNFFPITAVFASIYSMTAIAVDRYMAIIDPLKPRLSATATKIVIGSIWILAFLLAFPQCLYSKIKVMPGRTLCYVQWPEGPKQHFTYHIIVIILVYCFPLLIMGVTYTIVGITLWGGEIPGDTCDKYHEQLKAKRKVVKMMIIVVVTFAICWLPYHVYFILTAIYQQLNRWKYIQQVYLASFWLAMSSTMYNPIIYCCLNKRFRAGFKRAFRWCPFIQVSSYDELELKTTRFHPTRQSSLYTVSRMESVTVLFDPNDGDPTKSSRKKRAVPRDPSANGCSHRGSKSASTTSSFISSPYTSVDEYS
# UniProt Q08E50: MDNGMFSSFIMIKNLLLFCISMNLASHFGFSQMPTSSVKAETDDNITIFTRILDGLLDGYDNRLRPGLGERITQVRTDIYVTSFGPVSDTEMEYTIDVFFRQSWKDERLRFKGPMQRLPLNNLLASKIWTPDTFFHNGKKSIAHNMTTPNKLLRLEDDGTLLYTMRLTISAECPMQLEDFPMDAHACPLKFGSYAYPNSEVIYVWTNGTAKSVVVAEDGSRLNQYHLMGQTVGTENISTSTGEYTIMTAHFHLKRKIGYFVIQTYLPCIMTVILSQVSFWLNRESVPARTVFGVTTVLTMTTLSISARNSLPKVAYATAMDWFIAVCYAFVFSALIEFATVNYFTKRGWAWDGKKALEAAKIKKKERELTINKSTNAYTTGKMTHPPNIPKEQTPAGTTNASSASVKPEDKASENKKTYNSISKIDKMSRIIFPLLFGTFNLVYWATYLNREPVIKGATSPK
# UniProt Q01717: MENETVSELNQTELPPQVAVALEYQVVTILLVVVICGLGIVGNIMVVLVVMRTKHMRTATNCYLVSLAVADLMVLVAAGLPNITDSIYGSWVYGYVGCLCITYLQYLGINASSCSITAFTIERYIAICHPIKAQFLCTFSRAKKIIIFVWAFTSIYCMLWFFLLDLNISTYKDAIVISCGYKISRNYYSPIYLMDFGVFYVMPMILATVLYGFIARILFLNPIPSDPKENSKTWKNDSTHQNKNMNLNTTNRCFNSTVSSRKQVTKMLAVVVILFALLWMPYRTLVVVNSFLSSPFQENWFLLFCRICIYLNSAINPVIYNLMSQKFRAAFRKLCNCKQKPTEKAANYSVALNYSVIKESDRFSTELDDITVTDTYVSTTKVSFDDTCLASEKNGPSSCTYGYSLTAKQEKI
# UniProt P30536, whole entry, looked up: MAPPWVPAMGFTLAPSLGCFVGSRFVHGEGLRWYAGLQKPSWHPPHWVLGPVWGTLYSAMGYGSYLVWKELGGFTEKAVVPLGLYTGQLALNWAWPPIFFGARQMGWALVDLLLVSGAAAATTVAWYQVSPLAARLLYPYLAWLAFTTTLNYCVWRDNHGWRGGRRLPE
# UniProt P62813: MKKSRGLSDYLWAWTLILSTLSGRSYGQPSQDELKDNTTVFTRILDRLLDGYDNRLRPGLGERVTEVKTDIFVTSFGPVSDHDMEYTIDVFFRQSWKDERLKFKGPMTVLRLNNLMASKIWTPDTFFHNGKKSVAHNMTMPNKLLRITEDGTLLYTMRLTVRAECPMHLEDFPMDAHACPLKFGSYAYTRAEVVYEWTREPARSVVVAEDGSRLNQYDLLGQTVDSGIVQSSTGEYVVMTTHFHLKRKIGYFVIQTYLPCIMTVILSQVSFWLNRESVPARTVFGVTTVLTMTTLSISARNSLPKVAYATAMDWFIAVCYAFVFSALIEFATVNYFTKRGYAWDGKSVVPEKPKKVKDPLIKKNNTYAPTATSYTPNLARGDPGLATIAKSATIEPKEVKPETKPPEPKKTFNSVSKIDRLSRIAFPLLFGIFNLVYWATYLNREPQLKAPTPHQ
# What was measured:
# [1] = molecular target: rat Neurokinin-3 Receptor (NK3), Tacr3 (gene 24808) (UniProt P16177); assay: NVS_GPCR_rNK3: NovaScreen (NVS) G Protein-Coupled Receptor Assay for rat Neurokinin-3 Receptor (NK3) (AID 2283310)
# Outline: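 Filter-based radioligand displacement on rat cortex membrane preparations, read by scintillation 2 h post-dose. Chemicals first tested in duplicate at 25 uM; actives followed up in concentration series with a 50 uM maximum.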
# [2] = molecular target: bovine Gamma-Aminobutyric Acid Type A Receptor BDZ, alpha 5 site (GABARa5), GABRA5 (gene 523515) (UniProt Q08E50); assay: NVS_LGIC_bGABARa5: NovaScreen (NVS) Ligand-Gated Ion Channel Assay for bovine Gamma-Aminobutyric Acid Type A Receptor BDZ, alpha 5 site (GABARa5) (AID 2283323)
# Outline: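 Tested first in duplicate at a single 25 uM, with hits re-run in concentration series to a 50 uM maximum. Bovine hippocampal membranes; specific radioligand displacement measured by filter scintillation counting 1 hr post-dose.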
# [3] = molecular target: rat Thyrotropin Releasing Hormone Receptor (TRH), Trhr (gene 25570) (UniProt Q01717); assay: NVS_GPCR_rTRH: NovaScreen (NVS) G Protein-Coupled Receptor Assay for rat Thyrotropin Releasing Hormone Receptor (TRH) (AID 2283329);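 note: hit means lower bound tracer signal versus DMSO baseline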
# Outline: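 Test compounds are screened at 25 uM in duplicate against radioligand binding in rat forebrain membranes, with active pairs followed up over a concentration range. Detection uses filter-based radiodetection after a 4 h exposure.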
# [4] = molecular target: human Peripheral-type Benzodiazepine Receptor (PBR), TSPO (gene 706) (UniProt P30536); assay: NVS_MP_hPBR: NovaScreen (NVS) Membrane Protein Assay for human Peripheral-type Benzodiazepine Receptor (PBR) (AID 2283331);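 note: hits reduce radioligand binding relative to DMSO baseline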
# Outline: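 Cell-free binding to human colonic membrane preparations measured by filter-based scintillation counting after 1 h. Compounds first run at 25 uM in duplicate, then concentration series for actives; signal loss against DMSO baseline.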
# [5] = tested on: NCBI gene 24521; assay: NVS_IC_rKATPCh: NovaScreen (NVS) Ion Channel Assay for rat Potassium Channel, ATP-Sensitive (KATPCh) (AID 2283319)
# Outline: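 Primary duplicate screen at 25 uM, then singleton concentration series to 50 uM maximum, in a rat cortex membrane radioligand displacement assay. Binding measured by filtration and scintillation 2 h post-dose; DMSO baseline.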
# [6] = molecular target: Sodium channel protein type 1 subunit alpha (Rattus norvegicus) (UniProt P04774); assay: NVS_IC_rNaCh_site2: NovaScreen (NVS) Ion Channel Assay for rat Sodium Channel, Site 2 (NaCh) (AID 2283322);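 note: hit means loss of radioligand binding signal relative to DMSO so AC50 marks displacement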
# Outline: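 Initial duplicate single-point testing at 25 uM, followed by concentration-response runs for actives. Binding of radioligand to rat forebrain membranes quantified after 1 h via filter-based radiodetection.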
# [7] = molecular target: rat Gamma-Aminobutyric Acid Type A Receptor, Non-Selective (GABAR-NonSelective), Gabra1 (gene 29705) (UniProt P62813); assay: NVS_LGIC_rGABAR_NonSelective: NovaScreen (NVS) Ligand-Gated Ion Channel Assay for rat Gamma-Aminobutyric Acid Type A Receptor, Non-Selective (GABAR-NonSelective) (AID 2283326)
# Outline: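 Compounds were first screened in duplicate at 25 uM, with actives run as singleton concentration series (max 50 uM). Binding of a radioligand to rat whole-brain GABA-A preparation was measured by filtration and scintillation counting after 1 h, DMSO baseline.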
# [8] = molecular target: rat Glutamate, NMDA Agonist Site (GluNMDA), Grin1 (gene 24408) (UniProt P35439); assay: NVS_LGIC_rGluNMDA_Agonist: NovaScreen (NVS) Ligand-Gated Ion Channel Assay for rat Glutamate, NMDA Agonist Site (GluNMDA) (AID 2283327)
# Outline: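 Radioligand displacement at the agonist site on rat forebrain membrane preparations, read by filter scintillation after 1 h. Chemicals were first run at 25 uM in duplicate; those passing threshold were titrated to a 50 uM maximum.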
compound,measurement,setting,value
O=C1C2CC=CCC2C(=O)N1SC(Cl)(Cl)Cl (stereo unspecified),AC50,[1],inconclusive: 25000 nM
same,AC50,[2],inconclusive: 443 nM
same,AC50,[3],inconclusive: 61 nM
same,AC50,[4],inconclusive: 1350 nM
CCCOCC(=Nc1ccc(Cl)cc1C(F)(F)F)n1ccnc1,AC50,[5],inconclusive: 176 nM
CCCCCCCCCCCCN(C)C,outcome,[6],inactive
c1cc2c3c(cccc3c1)CC2,AC50,[7],active: 1700 nM
CCOC(=O)COc1cc(-c2nn(C)c(OC(F)F)c2Cl)c(F)cc1Cl,AC50,[7],inconclusive: 25000 nM
CC(Cc1ccc(OCC(=O)O)cc1)NCC(O)c1csc(C(F)(F)F)n1 (stereo unspecified),outcome,[8],inactive
O=[N+]([O-])c1c(Cl)c(Cl)c(Cl)c(Cl)c1Cl,AC50,[4],inconclusive: 4960 nM
Cn1sc(Cl)cc1=O,AC50,[4],inconclusive: 25000 nM

# As a short view, some entries already given:
compound,measurement,setting,value
O=C1C2CC=CCC2C(=O)N1SC(Cl)(Cl)Cl (stereo unspecified),AC50,[3],inconclusive: 61 nM
same,AC50,[4],inconclusive: 1350 nM
CCCOCC(=Nc1ccc(Cl)cc1C(F)(F)F)n1ccnc1,AC50,[5],inconclusive: 176 nM
